Laboratory results as given in publication PMC8559680.
Results are given in words; binding and its absence hold for the method and conditions named. Some entries that bind do so weakly or less than the wild type. Tags and fused reporters may be left off the sequences shown.

B1: Yth1 (untagged) (protein, UniProt Q06102 1-208)
chain: MSLIHPDTAKYPFKFEPFLRQEYSFSLDPDRPICEFYNSREGPKSCPRGPLCPKKHVLPIFQNKIVCRHWLRGLCKKNDQCEYLHEYNLRKMPECVFFSKNGYCTQSPDCQYLHIDPASKIPKCENYEMGFCPLGSSCPRRHIKKVFCQRYMTGFCPLGKDECDMEHPQFIIPDEGSKLRIKRDDEINTRKMDEEKERRLNAIINGEV
B2: Pfs2 (untagged, in CPF) (protein, UniProt P42841 1-465)
chain: MDGHNQNQYQNQNQIQQSQQPPLKKYVTQRRSVDVSSPYINLYYNRRHGLPNLVVEPETSYTIDIMPPNAYRGRDRVINLPSKFTHLSSNKVKHVIPAIQWTPEGRRLVVATYSGEFSLWNASSFTFETLMQAHDSAVTTMKYSHDSDWMISGDADGMIKIWQPNFSMVKEIDAAHTESIRDMAFSSNDSKFVTCSDDNILKIWNFSNGKQERVLSGHHWDVKSCDWHPEMGLIASASKDNLVKLWDPRSGNCISSILKFKHTVLKTRFQPTKGNLLMAISKDKSCRVFDIRYSMKELMCVRDETDYMTLEWHPINESMFTLACYDGSLKHFDLLQNLNEPILTIPYAHDKCITSLSYNPVGHIFATAAKDRTIRFWTRARPIDPNAYDDPTYNNKKINGWFFGINNDINAVREKSEFGAAPPPPATLEPHALPNMNGFINKKPRQEIPGIDSNIKSSTLPGLSI
B3: Cft2 (protein, UniProt Q12102 1-859)
chain: MTYKYNCCDDGSGTTVGSVVRFDNVTLLIDPGWNPSKVSYEQCIKYWEKVIPEIDVIILSQPTIECLGAHSLLYYNFTSHFISRIQVYATLPVINLGRVSTIDSYASAGVIGPYDTNKLDLEDIEISFDHIVPLKYSQLVDLRSRYDGLTLLAYNAGVCPGGSIWCISTYSEKLVYAKRWNHTRDNILNAASILDATGKPLSTLMRPSAIITTLDRFGSSQPFKKRSKIFKDTLKKGLSSDGSVIIPVDMSGKFLDLFTQVHELLFESTKINAHTQVPVLILSYARGRTLTYAKSMLEWLSPSLLKTWENRNNTSPFEIGSRIKIIAPNELSKYPGSKICFVSEVGALINEVIIKVGNSEKTTLILTKPSFECASSLDKILEIVEQDERNWKTFPEDGKSFLCDNYISIDTIKEEPLSKEETEAFKVQLKEKKRDRNKKILLVKRESKKLANGNAIIDDTNGERAMRNQDILVENVNGVPPIDHIMGGDEDDDEEEENDNLLNLLKDNSEKSAAKKNTEVPVDIIIQPSAASKHKMFPFNPAKIKKDDYGTVVDFTMFLPDDSDNVNQNSRKRPLKDGAKTTSPVNEEDNKNEEEDGYNMSDPISKRSKHRASRYSGFSGTGEAENFDNLDYLKIDKTLSKRTISTVNVQLKCSVVILNLQSLVDQRSASIIWPSLKSRKIVLSAPKQIQNEEITAKLIKKNIEVVNMPLNKIVEFSTTIKTLDISIDSNLDNLLKWQRISDSYTVATVVGRLVKESLPQVNNHQKTASRSKLVLKPLHGSSRSHKTGALSIGDVRLAQLKKLLTEKNYIAEFKGEGTLVINEKVAVRKINDAETIIDGTPSELFDTVKKLVTDMLAKI
B4: Ysh1 (enzyme, UniProt Q06224 1-779)
chain: MERTNTTTFKFFSLGGSNEVGRSCHILQYKGKTVMLDAGIHPAYQGLASLPFYDEFDLSKVDILLISHFHLDHAASLPYVMQRTNFQGRVFMTHPTKAIYRWLLRDFVRVTSIGSSSSSMGTKDEGLFSDEDLVDSFDKIETVDYHSTVDVNGIKFTAFHAGHVLGAAMFQIEIAGLRVLFTGDYSREVDRHLNSAEVPPLSSNVLIVESTFGTATHEPRLNRERKLTQLIHSTVMRGGRVLLPVFALGRAQEIMLILDEYWSQHADELGGGQVPIFYASNLAKKCMSVFQTYVNMMNDDIRKKFRDSQTNPFIFKNISYLRNLEDFQDFGPSVMLASPGMLQSGLSRDLLERWCPEDKNLVLITGYSIEGTMAKFIMLEPDTIPSINNPEITIPRRCQVEEISFAAHVDFQENLEFIEKISAPNIILVHGEANPMGRLKSALLSNFASLKGTDNEVHVFNPRNCVEVDLEFQGVKVAKAVGNIVNEIYKEENVEIKEEIAAKIEPIKEENEDNLDSQAEKGLVDEEEHKDIVVSGILVSDDKNFELDFLSLSDLREHHPDLSTTILRERQSVRVNCKKELIYWHILQMFGEAEVLQDDDRVTNQEPKVKEESKDNLTNTGKLILQIMGDIKLTIVNTLAVVEWTQDLMNDTVADSIIAILMNVDSAPASVKLSSHSCDDHDHNNVQSNAQGKIDEVERVKQISRLFKEQFGDCFTLFLNKDEYASNKEETITGVVTIGKSTAKIDFNNMKILECNSNPLKGRVESLLNIGGNLVTPLC

What follows are binders tested against T1, Ref2-3C-SII (yeast) (UniProt P42073) (assay: co-purification (StrepTactin affinity, anion exchange, size exclusion); StrepII tag on Ref2 as bait; Sf9 cells co-infected with two baculoviruses (nuclease and polymerase modules; phosphatase module); purified complex analysed by SDS-PAGE).
T1 sequence: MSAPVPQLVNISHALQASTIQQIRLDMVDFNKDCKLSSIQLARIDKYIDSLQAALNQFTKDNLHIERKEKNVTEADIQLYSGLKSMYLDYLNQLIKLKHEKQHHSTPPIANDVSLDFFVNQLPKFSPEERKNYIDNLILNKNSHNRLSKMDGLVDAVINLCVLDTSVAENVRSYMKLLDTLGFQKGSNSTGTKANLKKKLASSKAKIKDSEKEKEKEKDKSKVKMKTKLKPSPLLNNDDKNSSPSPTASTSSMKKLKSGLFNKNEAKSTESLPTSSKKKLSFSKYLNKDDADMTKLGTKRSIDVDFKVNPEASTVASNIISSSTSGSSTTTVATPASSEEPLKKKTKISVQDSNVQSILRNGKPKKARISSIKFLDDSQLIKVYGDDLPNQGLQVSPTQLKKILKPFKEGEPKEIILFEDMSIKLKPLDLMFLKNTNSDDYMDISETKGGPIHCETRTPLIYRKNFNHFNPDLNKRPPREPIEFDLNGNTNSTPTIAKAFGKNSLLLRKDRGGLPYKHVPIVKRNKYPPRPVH
B1 was tested, and the binding was “binds”.
B2 was tested, and the binding was “binds”.
In the case of B3, the binding is reported as “binds”.
With B4 the binding was “binds”.
